The other results are listed elsewhere or left out.
Key:
Test in all cases: log2 fold change, soluble protein after heating vs DMSO (PISA); higher = thermal stabilisation; K562 cells, 10 uM, 30 min; active = over 0.2 and 3.5 SD of the protein, either way, in both replicates (recomputed)
[1] = compound: CN1CCN(c2nc(C3=C(c4c[nH]c5ccccc45)C(=O)NC3=O)c3ccccc3n2)CC1 [sotrastaurin]
Method in brief: (§1)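 K562 cells at 2×10^6 cells/mL were exposed to 10 μM compound for 30 min, then aliquots were heated for 3 min across 48°C-58°C, pooled, and extracted in PBS containing 0.5% NP-40 at 4°C. The supernatant after 21,000xg for 90 min was taken as soluble protein and measured by TMTpro 16plex LC-MS/MS with channel sums equalised. Thermal stability is reported relative to control samples, with values from duplicates. Fold changes are given on a log2 scale.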

By UniProt entry, the sequences of proteins in these tests, tags left out. Where a name states a change or a piece, a line headed by the entry shows the natural chain unless it says otherwise.
UniProt P28330: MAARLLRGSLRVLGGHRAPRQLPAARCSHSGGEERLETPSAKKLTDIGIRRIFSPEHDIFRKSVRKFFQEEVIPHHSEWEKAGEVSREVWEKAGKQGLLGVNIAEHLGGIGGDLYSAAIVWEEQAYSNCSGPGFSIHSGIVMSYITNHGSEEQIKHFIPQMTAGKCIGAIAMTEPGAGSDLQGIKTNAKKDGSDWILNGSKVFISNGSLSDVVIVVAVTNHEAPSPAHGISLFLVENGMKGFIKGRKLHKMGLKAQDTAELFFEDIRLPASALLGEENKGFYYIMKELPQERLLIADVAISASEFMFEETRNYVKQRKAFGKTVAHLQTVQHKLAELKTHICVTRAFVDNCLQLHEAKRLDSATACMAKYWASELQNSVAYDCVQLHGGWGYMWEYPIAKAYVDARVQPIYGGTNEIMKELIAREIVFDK
UniProt Q15067: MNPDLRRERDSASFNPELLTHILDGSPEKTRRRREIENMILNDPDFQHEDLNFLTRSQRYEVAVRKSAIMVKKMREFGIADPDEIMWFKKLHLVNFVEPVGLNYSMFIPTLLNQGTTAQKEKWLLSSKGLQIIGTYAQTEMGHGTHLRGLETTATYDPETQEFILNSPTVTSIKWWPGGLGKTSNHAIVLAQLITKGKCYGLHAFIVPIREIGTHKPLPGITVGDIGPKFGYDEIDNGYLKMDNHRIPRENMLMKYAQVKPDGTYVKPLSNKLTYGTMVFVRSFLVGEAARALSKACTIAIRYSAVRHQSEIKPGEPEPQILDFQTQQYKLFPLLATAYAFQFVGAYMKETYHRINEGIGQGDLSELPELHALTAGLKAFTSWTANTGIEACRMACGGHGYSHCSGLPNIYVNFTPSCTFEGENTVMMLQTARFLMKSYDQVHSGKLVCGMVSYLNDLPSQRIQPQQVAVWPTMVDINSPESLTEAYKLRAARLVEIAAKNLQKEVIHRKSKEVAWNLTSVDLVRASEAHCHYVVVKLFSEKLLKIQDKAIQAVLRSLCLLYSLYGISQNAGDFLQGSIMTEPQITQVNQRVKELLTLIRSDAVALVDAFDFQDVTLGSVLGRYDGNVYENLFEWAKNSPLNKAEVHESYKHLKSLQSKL
UniProt Q8TB40: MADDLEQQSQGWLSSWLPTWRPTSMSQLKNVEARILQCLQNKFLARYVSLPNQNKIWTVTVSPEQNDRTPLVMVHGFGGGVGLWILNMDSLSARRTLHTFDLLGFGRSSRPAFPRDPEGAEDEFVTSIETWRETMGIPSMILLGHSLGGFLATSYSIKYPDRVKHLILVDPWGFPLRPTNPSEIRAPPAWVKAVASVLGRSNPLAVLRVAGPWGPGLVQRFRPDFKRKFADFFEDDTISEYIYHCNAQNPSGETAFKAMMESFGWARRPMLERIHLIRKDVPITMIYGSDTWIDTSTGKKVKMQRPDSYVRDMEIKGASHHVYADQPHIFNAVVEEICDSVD
UniProt P08183, whole entry, looked up: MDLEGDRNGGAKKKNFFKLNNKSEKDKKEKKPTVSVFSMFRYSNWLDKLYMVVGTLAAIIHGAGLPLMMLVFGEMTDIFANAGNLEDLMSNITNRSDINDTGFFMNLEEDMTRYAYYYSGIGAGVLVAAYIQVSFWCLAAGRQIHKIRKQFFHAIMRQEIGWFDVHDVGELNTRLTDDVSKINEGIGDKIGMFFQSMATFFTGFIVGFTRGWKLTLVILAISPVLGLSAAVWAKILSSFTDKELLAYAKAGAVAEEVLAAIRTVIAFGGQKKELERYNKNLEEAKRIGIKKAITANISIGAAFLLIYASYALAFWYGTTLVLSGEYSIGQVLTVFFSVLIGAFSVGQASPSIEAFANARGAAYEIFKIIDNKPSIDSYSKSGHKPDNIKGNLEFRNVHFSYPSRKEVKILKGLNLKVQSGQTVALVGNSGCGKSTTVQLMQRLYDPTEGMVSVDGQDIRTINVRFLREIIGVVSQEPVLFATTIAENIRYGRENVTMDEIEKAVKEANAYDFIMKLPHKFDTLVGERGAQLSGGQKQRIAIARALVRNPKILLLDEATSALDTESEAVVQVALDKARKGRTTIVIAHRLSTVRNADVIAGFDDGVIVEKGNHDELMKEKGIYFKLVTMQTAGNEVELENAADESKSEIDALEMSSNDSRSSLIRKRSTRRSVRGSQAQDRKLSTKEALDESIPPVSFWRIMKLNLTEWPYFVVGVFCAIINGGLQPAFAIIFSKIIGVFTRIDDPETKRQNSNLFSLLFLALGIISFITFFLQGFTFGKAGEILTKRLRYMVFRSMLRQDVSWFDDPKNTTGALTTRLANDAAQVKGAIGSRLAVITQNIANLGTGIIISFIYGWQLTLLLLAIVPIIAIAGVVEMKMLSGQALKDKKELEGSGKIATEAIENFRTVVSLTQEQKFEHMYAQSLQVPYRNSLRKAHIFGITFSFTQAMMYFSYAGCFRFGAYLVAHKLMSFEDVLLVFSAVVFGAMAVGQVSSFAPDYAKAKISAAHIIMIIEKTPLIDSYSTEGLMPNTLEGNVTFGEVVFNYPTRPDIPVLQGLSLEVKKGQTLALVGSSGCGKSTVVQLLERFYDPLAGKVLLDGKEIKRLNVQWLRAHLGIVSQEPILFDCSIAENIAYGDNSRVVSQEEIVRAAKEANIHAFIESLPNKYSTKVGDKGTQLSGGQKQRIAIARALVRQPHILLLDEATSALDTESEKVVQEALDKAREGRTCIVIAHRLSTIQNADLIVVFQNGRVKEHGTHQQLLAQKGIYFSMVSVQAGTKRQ
UniProt Q9BUJ0: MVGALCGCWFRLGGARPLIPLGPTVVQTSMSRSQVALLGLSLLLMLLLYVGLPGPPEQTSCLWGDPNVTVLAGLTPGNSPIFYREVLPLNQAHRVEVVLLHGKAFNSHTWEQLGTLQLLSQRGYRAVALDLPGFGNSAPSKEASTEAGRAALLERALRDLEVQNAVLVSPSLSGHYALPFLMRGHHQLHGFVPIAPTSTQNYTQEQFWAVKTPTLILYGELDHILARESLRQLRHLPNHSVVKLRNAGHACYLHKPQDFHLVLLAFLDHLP
UniProt Q96QU6: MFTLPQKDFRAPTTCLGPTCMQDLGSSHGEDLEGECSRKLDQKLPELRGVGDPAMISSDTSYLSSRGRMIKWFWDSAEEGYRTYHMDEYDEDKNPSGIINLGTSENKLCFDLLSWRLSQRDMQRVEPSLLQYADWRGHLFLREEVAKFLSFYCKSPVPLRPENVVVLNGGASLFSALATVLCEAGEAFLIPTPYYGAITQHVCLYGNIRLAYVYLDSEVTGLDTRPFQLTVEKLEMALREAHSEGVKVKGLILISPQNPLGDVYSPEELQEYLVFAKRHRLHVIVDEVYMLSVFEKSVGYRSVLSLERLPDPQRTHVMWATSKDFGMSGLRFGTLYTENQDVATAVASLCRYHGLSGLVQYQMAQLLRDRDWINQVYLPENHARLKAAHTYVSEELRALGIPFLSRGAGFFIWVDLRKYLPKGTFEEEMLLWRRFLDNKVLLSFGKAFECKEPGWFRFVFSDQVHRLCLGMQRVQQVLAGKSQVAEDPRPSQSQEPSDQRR
UniProt P80404: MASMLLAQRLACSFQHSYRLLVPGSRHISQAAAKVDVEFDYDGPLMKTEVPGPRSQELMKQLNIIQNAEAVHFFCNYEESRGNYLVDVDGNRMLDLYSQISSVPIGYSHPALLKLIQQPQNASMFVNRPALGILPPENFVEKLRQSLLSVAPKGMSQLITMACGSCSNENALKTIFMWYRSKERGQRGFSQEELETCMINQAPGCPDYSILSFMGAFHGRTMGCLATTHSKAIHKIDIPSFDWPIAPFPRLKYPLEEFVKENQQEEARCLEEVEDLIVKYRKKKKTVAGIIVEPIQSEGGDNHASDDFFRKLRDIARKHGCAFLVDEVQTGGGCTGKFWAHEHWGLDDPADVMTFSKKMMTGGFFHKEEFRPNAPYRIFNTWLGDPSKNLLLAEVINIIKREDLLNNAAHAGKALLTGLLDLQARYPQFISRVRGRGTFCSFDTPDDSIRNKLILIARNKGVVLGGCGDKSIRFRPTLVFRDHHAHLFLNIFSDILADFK
UniProt Q9P1F3: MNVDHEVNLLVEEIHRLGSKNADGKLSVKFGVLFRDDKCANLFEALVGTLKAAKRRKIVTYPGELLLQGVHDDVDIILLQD
UniProt Q86TW2: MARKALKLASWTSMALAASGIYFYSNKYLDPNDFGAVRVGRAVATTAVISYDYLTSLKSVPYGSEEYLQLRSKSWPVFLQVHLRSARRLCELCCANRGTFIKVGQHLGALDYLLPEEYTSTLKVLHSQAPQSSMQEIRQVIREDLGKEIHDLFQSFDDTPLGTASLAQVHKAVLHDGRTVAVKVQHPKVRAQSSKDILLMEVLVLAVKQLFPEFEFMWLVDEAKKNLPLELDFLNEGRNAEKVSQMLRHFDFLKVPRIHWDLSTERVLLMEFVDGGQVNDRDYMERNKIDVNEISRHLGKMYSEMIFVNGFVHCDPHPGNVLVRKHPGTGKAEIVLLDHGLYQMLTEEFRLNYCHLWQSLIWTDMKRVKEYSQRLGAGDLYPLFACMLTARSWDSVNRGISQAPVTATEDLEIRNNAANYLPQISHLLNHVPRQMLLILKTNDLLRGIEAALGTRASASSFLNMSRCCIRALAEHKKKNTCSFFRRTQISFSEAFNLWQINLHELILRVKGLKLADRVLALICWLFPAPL
UniProt Q8N6N7: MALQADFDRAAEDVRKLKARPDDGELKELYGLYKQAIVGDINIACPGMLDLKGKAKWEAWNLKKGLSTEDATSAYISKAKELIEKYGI
UniProt Q8WTS1: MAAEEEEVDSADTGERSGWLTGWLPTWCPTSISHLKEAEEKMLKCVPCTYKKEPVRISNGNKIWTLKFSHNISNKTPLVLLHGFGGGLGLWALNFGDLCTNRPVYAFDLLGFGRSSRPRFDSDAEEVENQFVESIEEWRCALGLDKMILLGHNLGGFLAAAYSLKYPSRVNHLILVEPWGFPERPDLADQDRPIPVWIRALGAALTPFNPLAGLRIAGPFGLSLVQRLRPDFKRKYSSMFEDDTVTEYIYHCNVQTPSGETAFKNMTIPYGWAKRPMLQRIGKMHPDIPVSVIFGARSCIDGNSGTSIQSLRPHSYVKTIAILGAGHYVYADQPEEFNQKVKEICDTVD
UniProt Q8WU67: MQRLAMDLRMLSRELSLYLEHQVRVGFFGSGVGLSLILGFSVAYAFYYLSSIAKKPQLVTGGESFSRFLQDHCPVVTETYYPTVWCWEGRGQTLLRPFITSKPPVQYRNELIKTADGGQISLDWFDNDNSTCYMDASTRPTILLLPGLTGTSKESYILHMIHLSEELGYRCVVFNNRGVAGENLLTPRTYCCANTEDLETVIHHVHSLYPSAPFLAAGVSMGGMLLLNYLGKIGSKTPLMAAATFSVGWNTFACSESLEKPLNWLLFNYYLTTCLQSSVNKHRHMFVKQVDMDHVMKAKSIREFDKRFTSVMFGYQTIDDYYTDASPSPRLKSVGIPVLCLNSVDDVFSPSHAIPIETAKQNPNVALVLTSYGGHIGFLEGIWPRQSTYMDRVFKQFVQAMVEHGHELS
UniProt P33897: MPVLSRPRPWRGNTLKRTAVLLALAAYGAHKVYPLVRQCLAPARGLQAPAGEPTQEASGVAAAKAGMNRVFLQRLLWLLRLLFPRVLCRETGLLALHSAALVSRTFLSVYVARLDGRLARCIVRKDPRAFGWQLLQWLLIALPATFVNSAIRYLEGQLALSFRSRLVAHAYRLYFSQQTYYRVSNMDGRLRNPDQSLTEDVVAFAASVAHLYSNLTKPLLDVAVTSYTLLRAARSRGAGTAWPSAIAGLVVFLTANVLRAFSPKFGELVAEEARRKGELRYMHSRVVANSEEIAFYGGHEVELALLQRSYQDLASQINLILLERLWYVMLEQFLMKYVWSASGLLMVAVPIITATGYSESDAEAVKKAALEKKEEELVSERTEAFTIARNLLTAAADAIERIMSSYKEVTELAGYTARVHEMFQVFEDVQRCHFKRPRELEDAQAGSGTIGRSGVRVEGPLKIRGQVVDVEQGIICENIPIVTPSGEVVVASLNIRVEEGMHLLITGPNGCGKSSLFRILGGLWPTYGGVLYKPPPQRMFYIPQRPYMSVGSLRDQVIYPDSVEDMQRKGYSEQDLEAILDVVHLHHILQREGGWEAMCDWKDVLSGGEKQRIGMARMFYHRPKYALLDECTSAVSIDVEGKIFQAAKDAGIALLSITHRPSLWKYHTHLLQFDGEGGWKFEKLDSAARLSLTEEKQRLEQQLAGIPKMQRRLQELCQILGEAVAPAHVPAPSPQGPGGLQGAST
UniProt Q8TDG2: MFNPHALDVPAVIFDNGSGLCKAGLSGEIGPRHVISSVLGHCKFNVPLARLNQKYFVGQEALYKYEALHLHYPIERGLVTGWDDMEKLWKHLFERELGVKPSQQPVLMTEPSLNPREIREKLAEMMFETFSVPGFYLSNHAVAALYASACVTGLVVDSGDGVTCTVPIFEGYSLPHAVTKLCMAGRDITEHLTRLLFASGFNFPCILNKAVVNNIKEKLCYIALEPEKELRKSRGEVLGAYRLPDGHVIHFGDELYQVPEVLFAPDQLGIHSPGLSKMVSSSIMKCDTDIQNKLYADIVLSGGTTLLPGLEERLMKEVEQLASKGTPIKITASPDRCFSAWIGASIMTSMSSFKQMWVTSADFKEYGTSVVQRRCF

[2] = compound: CC[C@H](C)N1C=C(C2=C(C=C(C=C21)C3=CN=C(C=C3)N4CCNCC4)C(=O)NCC5=C(C=C(NC5=O)C)C)C
Method in brief: as §1

[3] = compound: CN(C)CC(=O)Nc1ccc2[nH]c(=O)c3ccccc3c2c1
Method in brief: as §1

[4] = compound: CN(CCOC1=CC=C(C=C1)C[C@H]2C(=O)NC(=O)S2)C3=CC=CC=N3 (racemic) [rosiglitazone]
Method in brief: as §1

[5] = compound: CN1CC[C@H](c2c(O)cc(O)c3c(=O)cc(-c4ccccc4Cl)oc23)[C@H](O)C1 [alvocidib]
Method in brief: as §1

[6] = compound: CN1CCc2c(c3ccccc3n2Cc2ccc(C(=O)NO)cc2)C1 [Tubastatin A]
Method in brief: as §1

[7] = compound: CNC(=O)c1ccc(Nc2ncc(C(F)(F)F)c(NCc3nccnc3N(C)S(C)(=O)=O)n2)cc1 [defactinib]
Method in brief: as §1

[8] = compound: COC(=O)[C@H](CCSC)NC(=O)C1=C(C=C(C=C1)NC[C@H](CS)N)C2=CC=CC=C2
Method in brief: as §1

[9] = compound: CCn1c(C(=O)N(C2CC2)C2CC2)cc2c3c(ncn3C)c(Nc3cc(C)n(C)n3)nc21
Method in brief: as §1

[10] = compound: CN1C2=C(C3=C1C(=O)N(N=C3)CC4=CC(=CC=C4)N)SC(=C2)S(=O)C
Method in brief: as §1

[11] = compound: CN1CCN(CCOc2cc(OC3CCOCC3)c3c(Nc4c(Cl)ccc5c4OCO5)ncnc3c2)CC1 [saracatinib]
Method in brief: as §1

[12] = compound: CNC(=O)C1=CC=CC=C1NC2=NC(=NC=C2Cl)NC3=C(C=C(C=C3)N4CCOCC4)OC
Method in brief: as §1

[13] = compound: CNc1nc(-c2ccc3c(N)n[nH]c3c2)cc(N2C[C@@H](C(=O)NC3CCCCC3)CC[C@H]2C)n1
Method in brief: as §1

[14] = compound: CC[C@@H]1C(=O)N(C)c2cnc(Nc3ccc(C(=O)NC4CCN(C)CC4)cc3OC)nc2N1C1CCCC1
Method in brief: as §1

[15] = compound: CNCc1ccc(-c2[nH]c3cc(F)cc4c3c2CCNC4=O)cc1 [rucaparib]
Method in brief: as §1

[16] = compound: COC(=O)N[C@@H](C)CNc1nccc(-c2cn(C(C)C)nc2-c2cc(Cl)cc(NS(C)(=O)=O)c2F)n1 [encorafenib]
Method in brief: as §1

[17] = compound: CC[C@H](C)[C@@H](C(=O)N[C@@H]([C@@H](C)O)C(=O)N[C@@H](CC(C)C)C(=O)[C@]1(CO1)C)NC(=O)[C@H]([C@@H](C)CC)N(C)C(=O)C [epoxomicin]
Method in brief: as §1

[18] = compound: CC[C@@H]1C(=O)N(C)c2cnc(Nc3ccc(C(=O)N[C@H]4CC[C@H](N5CCN(CC6CC6)CC5)CC4)cc3OC)nc2N1C(C)C [volasertib]
Method in brief: as §1

[19] = compound: CCn1cc(-c2ccnc3[nH]c(-c4cccc(CN(C)C)c4)cc23)c(-c2ccc(NC(=O)N(C)C)cc2)n1
Method in brief: as §1

[20] = compound: CN1CCC(CNc2ccc3ncc(-c4cccc(OC(F)(F)F)c4)n3n2)CC1
Method in brief: as §1

Measured: log2 fold change

ACADL (UniProt P28330)
inactive: [1] 0.027

ABCF1 (UniProt Q5STZ8)
inactive: [2] -0.141 | [3] -0.016 | [4] 0.037 | [5] 0.112 | [6] -0.231 | [7] -0.056 | [8] 0.071

ACAD10 isoform 5 (UniProt Q6JQN1)
inactive: [9] -0.117 | [3] 0.072 | [10] -0.046 | [11] 0.133 | [12] -0.018 | [7] -0.165 | [13] 0.216 | [8] -0.001

ACOX1 isoform 3 (UniProt Q15067)
inactive: [3] -0.272 | [6] -0.119 | [7] -0.09 | [8] 0.224

ABCA2 isoform 3 (UniProt Q9BZC7)
inactive: [14] 0.09 | [4] 0.159 | [1] 0.006 | [15] 0.022 | [16] -0.293

ABHD4 (UniProt Q8TB40)
inactive: [17] 0.074 | [9] -0.036 | [4] 0.189 | [12] -0.09

ABL2 (UniProt P42684)
inactive: [17] 0.226 | [4] 0.27 | [1] 0.172 | [6] 0.189

ADAM8 (UniProt P78325)
inactive: [17] 0.139 | [9] -0.151 | [12] 0.102

ABCB1 (UniProt P08183)
inactive: [14] -0.009 | [18] 0.088 | [5] 0.026 | [6] 0.046 | [15] -0.128 | [16] -0.058

ABHD14A (UniProt Q9BUJ0)
inactive: [10] 0.118 | [11] 0.056 | [1] -0.117 | [13] -0.108

ACCS (UniProt Q96QU6)
inactive: [14] -0.111 | [2] -0.027 | [17] 0.09 | [9] 0.002 | [19] -0.072 | [4] -0.039 | [20] 0.035 | [5] -0.142 | [6] -0.067 | [12] 0.032 | [15] -0.13 | [16] -0.039

ABAT (UniProt P80404)
inactive: [17] -0.069

AAK1, A0A096LP25
inactive: [14] -0.086 | [2] -0.005 | [17] -0.098 | [19] -0.031 | [3] 0.037 | [10] -0.073 | [20] 0.332 | [11] 0.147 | [1] -0.005 | [6] -0.05 | [12] 0.333 | [7] 0.037 | [15] 0.007 | [13] 0.244 | [16] 0.033 | [8] 0.023

ACTG1 (UniProt I3L4N8)
inactive: [14] 0.051 | [2] -0.03 | [9] 0.062 | [10] -0.163 | [11] 0.12 | [12] 0.039 | [15] -0.089 | [13] 0.173 | [16] -0.053

ABRACL (UniProt Q9P1F3)
inactive: [2] -0.024 | [4] 0.04 | [1] -0.081

ACTR3B (UniProt Q9P1U1)
inactive: [18] -0.063 | [2] 0.261 | [19] -0.047 | [3] -0.05 | [20] 0.048 | [6] -0.01 | [12] -0.004 | [7] 0.037 | [8] -0.01

ABCC10 (UniProt Q5T3U5)
inactive: [18] -0.075 | [2] 0.188 | [17] 0.011 | [9] -0.08 | [19] -0.116 | [3] 0.01 | [4] 0.032 | [10] -0.095 | [20] 0.036 | [11] 0.107 | [1] -0.007 | [6] 0.118 | [12] 0.012 | [7] -0.168 | [13] -0.073 | [8] 0.036

ADCK1 (UniProt Q86TW2)
inactive: [18] -0.067 | [2] 0.016 | [17] 0.077 | [9] 0.067 | [3] -0.016 | [10] 0.208 | [11] -0.098 | [1] 0.084 | [5] -0.091 | [6] -0.094 | [12] -0.133 | [7] 0.006 | [13] -0.081 | [8] -0.093

AASDH (UniProt Q4L235)
inactive: [2] 0.141 | [17] 0.028 | [19] 0.149 | [3] 0.189 | [10] -0.019 | [20] 0.004 | [11] 0.011 | [1] -0.067 | [6] 0.16 | [12] -0.014 | [7] -0.091 | [13] -0.036 | [8] -0.004
active: [18] -0.445

ACBD7 (UniProt Q8N6N7)
inactive: [14] 0.038 | [18] -0.123 | [19] -0.133 | [10] -0.208 | [20] 0.033 | [11] 0.139 | [15] 0.036 | [13] 0.024 | [16] -0.055

ACTB, A0A2R8YEA7
inactive: [14] -0.007 | [2] 0.057 | [9] 0.046 | [3] 0.087 | [4] 0.019 | [10] 0.127 | [11] -0.117 | [1] -0.049 | [5] 0.302 | [6] 0.122 | [12] -0.008 | [7] -0.071 | [15] -0.116 | [13] -0.217 | [16] -0.027 | [8] -0.066

ABHD5 (UniProt Q8WTS1)
inactive: [14] -0.032 | [18] -0.225 | [9] -0.157 | [4] -0.269 | [10] 0.195 | [11] -0.153 | [1] -0.11 | [5] 0.019 | [6] 0.023 | [12] -0.01 | [15] 0.033 | [13] 0 | [16] -0.068

AACS (UniProt Q86V21)
inactive: [17] 0.022

Taken from the entries so far (2 entries):
ABCF1 (UniProt Q5STZ8)
inactive: [2] -0.141 | [3] -0.016 | [4] 0.037 | [5] 0.112 | [6] -0.231 | [7] -0.056 | [8] 0.071

ACAD10 isoform 5 (UniProt Q6JQN1)
inactive: [9] -0.117 | [3] 0.072 | [10] -0.046 | [11] 0.133 | [12] -0.018 | [7] -0.165 | [13] 0.216 | [8] -0.001

Further records follow:

ACBD5 (UniProt Q5T8D3)
inactive: [18] 0.394 | [17] 0.044 | [9] -0.134 | [19] 0.141 | [3] 0.166 | [10] 0.068 | [20] 0.062 | [11] -0.19 | [1] 0.036 | [5] 0.059 | [6] -0.004 | [12] 0.007 | [7] 0.073 | [13] 0.046 | [8] -0.068

ABHD3 (UniProt Q8WU67)
inactive: [9] -0.065 | [12] -0.191

ABCD1 (UniProt P33897)
inactive: [17] 0.108 | [9] -0.125 | [1] 0.059 | [5] -0.042 | [12] -0.161

ABCA4 (UniProt P78363)
inactive: [14] 0.117 | [2] -0.202 | [17] -0.046 | [19] -0.163 | [20] -0.087 | [1] -0.249 | [6] 0.246 | [12] -0.152 | [15] 0.006 | [16] 0.006

ADAD1 (UniProt Q96M93)
inactive: [14] 0.058 | [2] -0.145 | [9] -0.08 | [19] 0.047 | [3] -0.042 | [4] 0.052 | [10] 0.071 | [20] -0.178 | [11] -0.112 | [5] -0.021 | [6] 0.101 | [12] -0.049 | [7] 0.008 | [15] -0.208 | [13] -0.102 | [16] 0.056 | [8] 0.11

ACTB (UniProt E7EVS6)
inactive: [9] -0.119 | [12] -0.312

ACTC1 (UniProt P68032)
inactive: [14] -0.196 | [9] 0.066 | [12] 0.27 | [15] 0.031 | [16] -0.253

ACTRT1 (UniProt Q8TDG2)
inactive: [18] 0.041 | [17] -0.146 | [9] 0.012 | [19] 0.044 | [3] -0.212 | [4] 0.059 | [10] 0.039 | [20] -0.195 | [11] -0.045 | [12] -0.112 | [7] 0.025 | [13] -0.055 | [8] 0.017

— the supplement of paper PMC10849652
